Consider one compound from the RepoRT retention time repository.

Molecules are shown by their SMILES.

The data set in a line: HILIC, Waters ACQUITY UPLC BEH Amide, 100 × 2.1 mm, 1.7 µm; A: water + 0.125% formic acid + 10 mM ammonium formate; B: 5% water + 95% acetonitrile + 0.125% formic acid + 10 mM ammonium formate; gradient (min/%B) 0/100 2/100 7.7/70 9.5/40 10.25/30 12.75/100 17/100. As to conditions: stereoisomer not certain.

For the compound `O=C(O)C(=O)Cc1ccc(O)cc1` [4-Hydroxyphenylpyruvic acid], the LC retention time is 1.22 min.
